Consider 1 molecule from paper PMC10607372.

Results are given in words; binding and its absence hold for the method and conditions named. Some entries that bind do so weakly or less than the wild type.

The target of this experiment is T1, fibroblast growth factor 23 (FGF23), recombinant human (human) (UniProt Q9GZV9).
T1 sequence: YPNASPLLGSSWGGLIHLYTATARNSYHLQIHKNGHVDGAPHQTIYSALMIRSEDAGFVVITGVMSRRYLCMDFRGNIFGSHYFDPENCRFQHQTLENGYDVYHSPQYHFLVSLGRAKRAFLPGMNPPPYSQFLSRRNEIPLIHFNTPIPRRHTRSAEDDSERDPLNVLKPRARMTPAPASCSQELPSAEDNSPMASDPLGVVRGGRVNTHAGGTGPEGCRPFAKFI
Briefly: SPR; array SPRi, stationary (non-fluidic); monoclonal anti-FGF23 antibody (25 ng/mL) bound covalently to a cysteamine monolayer on gold; FGF23 mixed with αKlotho (mass ratio 1:4.23) applied for 10 min, washed with HBS-ES buffer and water, dried, then read; pH 7.4; both purified. On the technique in general: Surface plasmon resonance follows binding to a sensor surface in real time, without labels.

B1: αKlotho protein, recombinant human (receptor, UniProt Q9UEF7 34-981)
chain: EPGDGAQTWARFSRPPAPEAAGLFQGTFPDGFLWAVGSAAYQTEGGWQQHGKGASIWDTFTHHPLAPPGDSRNASLPLGAPSPLQPATGDVASDSYNNVFRDTEALRELGVTHYRFSISWARVLPNGSAGVPNREGLRYYRRLLERLRELGVQPVVTLYHWDLPQRLQDAYGGWANRALADHFRDYAELCFRHFGGQVKYWITIDNPYVVAWHGYATGRLAPGIRGSPRLGYLVAHNLLLAHAKVWHLYNTSFRPTQGGQVSIALSSHWINPRRMTDHSIKECQKSLDFVLGWFAKPVFIDGDYPESMKNNLSSILPDFTESEKKFIKGTADFFALCFGPTLSFQLLDPHMKFRQLESPNLRQLLSWIDLEFNHPQIFIVENGWFVSGTTKRDDAKYMYYLKKFIMETLKAIKLDGVDVIGYTAWSLMDGFEWHRGYSIRRGLFYVDFLSQDKMLLPKSSALFYQKLIEKNGFPPLPENQPLEGTFPCDFAWGVVDNYIQVDTTLSQFTDLNVYLWDVHHSKRLIKVDGVVTKKRKSYCVDFAAIQPQIALLQEMHVTHFRFSLDWALILPLGNQSQVNHTILQYYRCMASELVRVNITPVVALWQPMAPNQGLPRLLARQGAWENPYTALAFAEYARLCFQELGHHVKLWITMNEPYTRNMTYSAGHNLLKAHALAWHVYNEKFRHAQNGKISIALQADWIEPACPFSQKDKEVAERVLEFDIGWLAEPIFGSGDYPWVMRDWLNQRNNFLLPYFTEDEKKLIQGTFDFLALSHYTTILVDSEKEDPIKYNDYLEVQEMTDITWLNSPSQVAVVPWGLRKVLNWLKFKYGDLPMYIISNGIDDGLHAEDDQLRVYYMQNYINEALKAHILDGINLCGYFAYSFNDRTAPRFGLYRYAADQFEPKASMKHYRKIIDSNGFPGPETLERFCPEEFTVCTECSFFHTRKS
On to B1, for which the binding result is reported as “binds”.
